Sequences and labels used below:
T1: GFP::CFP-1 (C. elegans) (UniProt Q9XUE7)
T1 sequence: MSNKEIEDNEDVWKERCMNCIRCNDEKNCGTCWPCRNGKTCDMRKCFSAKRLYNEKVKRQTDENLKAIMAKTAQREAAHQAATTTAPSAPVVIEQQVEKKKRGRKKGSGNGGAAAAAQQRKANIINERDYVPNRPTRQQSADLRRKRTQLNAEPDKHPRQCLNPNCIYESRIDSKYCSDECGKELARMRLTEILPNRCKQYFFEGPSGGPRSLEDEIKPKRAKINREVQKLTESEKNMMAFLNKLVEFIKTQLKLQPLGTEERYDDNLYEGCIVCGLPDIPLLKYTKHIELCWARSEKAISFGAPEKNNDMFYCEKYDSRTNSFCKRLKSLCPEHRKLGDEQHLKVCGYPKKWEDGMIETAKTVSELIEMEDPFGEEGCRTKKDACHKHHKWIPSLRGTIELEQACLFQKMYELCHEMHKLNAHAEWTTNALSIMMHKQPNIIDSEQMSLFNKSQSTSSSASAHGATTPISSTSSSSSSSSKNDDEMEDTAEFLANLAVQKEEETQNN

Protein sequences, listed by entry. Tags and fused reporters are not part of them. Lines headed by an entry give the natural chain unless they say otherwise; changes in a name come on top.
UniProt Q18221: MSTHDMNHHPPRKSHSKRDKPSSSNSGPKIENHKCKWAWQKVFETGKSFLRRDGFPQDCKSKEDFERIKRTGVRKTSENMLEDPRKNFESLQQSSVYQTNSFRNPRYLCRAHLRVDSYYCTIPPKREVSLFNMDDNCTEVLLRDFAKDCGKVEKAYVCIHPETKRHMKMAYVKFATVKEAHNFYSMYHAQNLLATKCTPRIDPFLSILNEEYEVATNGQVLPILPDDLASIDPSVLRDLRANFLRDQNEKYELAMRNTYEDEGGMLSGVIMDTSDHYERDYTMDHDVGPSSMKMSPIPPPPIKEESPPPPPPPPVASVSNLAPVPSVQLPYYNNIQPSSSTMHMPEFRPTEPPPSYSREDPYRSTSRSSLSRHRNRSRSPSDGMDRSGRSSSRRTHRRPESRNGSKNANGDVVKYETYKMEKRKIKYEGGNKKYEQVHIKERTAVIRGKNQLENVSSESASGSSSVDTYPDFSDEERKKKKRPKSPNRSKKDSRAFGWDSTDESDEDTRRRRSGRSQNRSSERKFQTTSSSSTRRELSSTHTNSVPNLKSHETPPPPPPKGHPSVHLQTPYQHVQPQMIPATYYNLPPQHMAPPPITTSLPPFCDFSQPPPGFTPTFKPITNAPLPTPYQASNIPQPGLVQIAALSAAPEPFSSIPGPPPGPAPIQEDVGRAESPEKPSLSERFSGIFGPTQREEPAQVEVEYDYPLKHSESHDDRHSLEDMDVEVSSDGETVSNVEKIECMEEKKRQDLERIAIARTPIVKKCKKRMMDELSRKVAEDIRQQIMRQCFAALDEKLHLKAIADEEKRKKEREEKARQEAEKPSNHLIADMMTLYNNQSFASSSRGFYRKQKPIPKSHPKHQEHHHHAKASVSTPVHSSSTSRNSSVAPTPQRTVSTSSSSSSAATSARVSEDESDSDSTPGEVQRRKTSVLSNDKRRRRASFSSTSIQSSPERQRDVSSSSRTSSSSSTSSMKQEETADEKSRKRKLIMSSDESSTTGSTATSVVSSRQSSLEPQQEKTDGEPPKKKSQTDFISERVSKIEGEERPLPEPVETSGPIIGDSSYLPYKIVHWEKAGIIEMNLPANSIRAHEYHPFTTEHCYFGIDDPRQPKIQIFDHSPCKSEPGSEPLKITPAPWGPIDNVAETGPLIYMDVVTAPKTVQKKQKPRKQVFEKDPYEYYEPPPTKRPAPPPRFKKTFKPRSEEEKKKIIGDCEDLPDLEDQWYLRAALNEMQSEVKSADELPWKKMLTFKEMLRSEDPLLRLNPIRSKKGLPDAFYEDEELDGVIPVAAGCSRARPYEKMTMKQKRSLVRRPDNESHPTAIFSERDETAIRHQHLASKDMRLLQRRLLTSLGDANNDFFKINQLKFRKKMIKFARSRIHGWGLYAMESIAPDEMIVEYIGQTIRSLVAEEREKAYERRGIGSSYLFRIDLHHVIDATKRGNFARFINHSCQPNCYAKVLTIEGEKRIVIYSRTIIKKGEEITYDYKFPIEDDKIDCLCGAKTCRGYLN
UniProt Q17963: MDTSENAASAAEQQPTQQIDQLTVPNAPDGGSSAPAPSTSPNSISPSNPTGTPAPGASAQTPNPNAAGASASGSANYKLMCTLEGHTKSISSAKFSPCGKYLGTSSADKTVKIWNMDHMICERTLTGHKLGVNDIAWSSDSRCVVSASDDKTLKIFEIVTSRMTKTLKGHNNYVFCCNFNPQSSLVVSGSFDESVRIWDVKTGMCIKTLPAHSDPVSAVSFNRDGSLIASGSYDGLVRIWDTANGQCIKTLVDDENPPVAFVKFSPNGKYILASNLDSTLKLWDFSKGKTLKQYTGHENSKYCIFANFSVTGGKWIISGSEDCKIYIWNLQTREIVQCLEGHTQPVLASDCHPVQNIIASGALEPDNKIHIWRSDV

B1: RBBP-5 (protein, UniProt Q09309 1-454)
chain: MVEILDRTYGAQFPEELECHLDLQNASANCCKFNRWGSIVAVGCTDGRVLIYDFMTRNIARTFSAHCLPVSCLSWSRDGRKLLTSSADNSIAMFDVLAGTLLHRIRFNSMVTFAMFHPRNDNKAIVLQVNKQPTVEQFSPRIQTVLANDTPGSSDESASCVSYDRKGKYIIAGTGKGKLLIYNAETLKCVAWCKQNTVQQIRQIIVPMKSRFIITNTQDRVIRTYELEDLLHQRGQMVEAKYKVLDMVNKAAWKNVCTDSDGLYVCGASTKAHSLYIWESNTGSLIKILHGNKGEALLDVQWHPTRPIILSIAQGTVSMWTQAHVENWSAFAPEFQELEENEKYIEKENEFDMEDEDADEDMTSKSQDAEDDIIDVVNVRPEDYLASSDEEDCNIMKPARNLESGPLWYIPVPLDIENADNDQRLPDDIRNLDNLLNPAWVASAKGYELSPKSK
B2: ASH-2 (protein, UniProt G5EFZ3 1-570)
chain: MRSSKGGRGRQAAPKTAPTTVCYCDGKRELGSVEVVCSTCLKWFHGRCLKEFHELNSNGVPFMICYTFTCKQCRPTAEDWKAKKADLVQMCVTVLATLSAERLKADGKLSAEHVPEDFTYLSLKDEIVPYMNENWYMLTAIKQKKEWHQNLAPTLLKEKNIFVQHNDDDDLFALAEKNLSLLGPLHEAVKLIGKRPIERENREPRHIELPPIEGPKTRGASKRRHAEAPVTGKKQKLAADYSSTAAPNGVQIDIPFSKDNYRYYLTEVDPNVPEDPAWNQNQSSAYVIPSFHYRELLNPTVNVSSNDRAFQLSINGNSITGFEGYSMARASHGVSKGTWYFEVNFDDQPDDSHIRIGWSQSYASLQACVGYNKFSYGWRSKHGTKFHEAKGKKYHFGGFKQGDVLGCLIHLPVDKKLQIPANLPSEKYLPVSHKGFNLISFKANYFFEVQEESADIAKTLVEMPGSYIEFFHNGKSCGKAYENIYAGAYYPSISIFKSATATMNLGPKFRNLPRGATGIHARADEQQHEQTLSDMLYLVSKEVNLDHPPRVKREDDDDVKDIKKEIKQEI

These are yes or no findings as the source states them, for the method shown. Binding seen in cells or lysates may run through a third protein. These calls come from enrichment with a bait or labelling near it, and not all partners need be listed. Sequences can lack the tags named with a protein.

In publication PMC8675910 one finds binding data, which are given here for 5 molecules.

The target of this assay is T1, GFP::CFP-1 (C. elegans). As to the kind of experiment: affinity purification with mass spectrometry; GFP::CFP-1 immunoprecipitated on GFP-TRAP MA beads from 70 mg total protein extract of C. elegans embryos carrying set-2(syb2085) or set-2(ok952); IP buffer 50 mM HEPES/KOH pH 7.5, 300 mM KCl, 1 mM EDTA, 1 mM MgCl2, 0.2% Igepal-CA630, 10% glycerol; 4°C; benzonase treatment on the beads; control: WT animals without the GFP::CFP-1 allele.
In the case of “SET-2 H1447K, catalytically inactive, encoded by set-2(syb2085) (from UniProt Q18221 1-1507) (enzyme)”, the binding result is listed as “binds”.

With “SWD-2.1 (C. elegans (endogenous in embryos))”, the binding entry is listed as “binds”.

In the case of WDR-5.1 (from UniProt Q17963 1-376), the binding entry is listed as “binds”.

Consider B1, for which the binding entry is reported as “binds”.

For B2, the binding result is on record as “binds”.
